Test results: article PMC8192922
No constants are given. Whether binding was seen depends on the method and setting. Binding seen in cells or lysates may run through a third protein. Some binding calls cover weakened binding; strength is not graded here.

Protein sequences, listed by entry. Tags and fused reporters are not part of them.
UniProt P54274: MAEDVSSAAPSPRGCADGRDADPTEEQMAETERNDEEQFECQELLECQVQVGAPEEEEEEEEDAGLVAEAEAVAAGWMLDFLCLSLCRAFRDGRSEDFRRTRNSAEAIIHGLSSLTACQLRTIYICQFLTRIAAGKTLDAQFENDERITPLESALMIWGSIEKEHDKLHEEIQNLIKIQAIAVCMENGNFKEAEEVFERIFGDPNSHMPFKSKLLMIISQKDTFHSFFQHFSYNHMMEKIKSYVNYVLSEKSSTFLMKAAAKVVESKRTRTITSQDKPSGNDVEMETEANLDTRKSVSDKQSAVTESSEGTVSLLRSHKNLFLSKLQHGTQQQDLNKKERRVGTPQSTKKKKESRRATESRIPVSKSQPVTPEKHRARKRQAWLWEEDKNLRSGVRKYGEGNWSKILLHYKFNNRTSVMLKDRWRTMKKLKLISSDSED
UniProt Q7Z333: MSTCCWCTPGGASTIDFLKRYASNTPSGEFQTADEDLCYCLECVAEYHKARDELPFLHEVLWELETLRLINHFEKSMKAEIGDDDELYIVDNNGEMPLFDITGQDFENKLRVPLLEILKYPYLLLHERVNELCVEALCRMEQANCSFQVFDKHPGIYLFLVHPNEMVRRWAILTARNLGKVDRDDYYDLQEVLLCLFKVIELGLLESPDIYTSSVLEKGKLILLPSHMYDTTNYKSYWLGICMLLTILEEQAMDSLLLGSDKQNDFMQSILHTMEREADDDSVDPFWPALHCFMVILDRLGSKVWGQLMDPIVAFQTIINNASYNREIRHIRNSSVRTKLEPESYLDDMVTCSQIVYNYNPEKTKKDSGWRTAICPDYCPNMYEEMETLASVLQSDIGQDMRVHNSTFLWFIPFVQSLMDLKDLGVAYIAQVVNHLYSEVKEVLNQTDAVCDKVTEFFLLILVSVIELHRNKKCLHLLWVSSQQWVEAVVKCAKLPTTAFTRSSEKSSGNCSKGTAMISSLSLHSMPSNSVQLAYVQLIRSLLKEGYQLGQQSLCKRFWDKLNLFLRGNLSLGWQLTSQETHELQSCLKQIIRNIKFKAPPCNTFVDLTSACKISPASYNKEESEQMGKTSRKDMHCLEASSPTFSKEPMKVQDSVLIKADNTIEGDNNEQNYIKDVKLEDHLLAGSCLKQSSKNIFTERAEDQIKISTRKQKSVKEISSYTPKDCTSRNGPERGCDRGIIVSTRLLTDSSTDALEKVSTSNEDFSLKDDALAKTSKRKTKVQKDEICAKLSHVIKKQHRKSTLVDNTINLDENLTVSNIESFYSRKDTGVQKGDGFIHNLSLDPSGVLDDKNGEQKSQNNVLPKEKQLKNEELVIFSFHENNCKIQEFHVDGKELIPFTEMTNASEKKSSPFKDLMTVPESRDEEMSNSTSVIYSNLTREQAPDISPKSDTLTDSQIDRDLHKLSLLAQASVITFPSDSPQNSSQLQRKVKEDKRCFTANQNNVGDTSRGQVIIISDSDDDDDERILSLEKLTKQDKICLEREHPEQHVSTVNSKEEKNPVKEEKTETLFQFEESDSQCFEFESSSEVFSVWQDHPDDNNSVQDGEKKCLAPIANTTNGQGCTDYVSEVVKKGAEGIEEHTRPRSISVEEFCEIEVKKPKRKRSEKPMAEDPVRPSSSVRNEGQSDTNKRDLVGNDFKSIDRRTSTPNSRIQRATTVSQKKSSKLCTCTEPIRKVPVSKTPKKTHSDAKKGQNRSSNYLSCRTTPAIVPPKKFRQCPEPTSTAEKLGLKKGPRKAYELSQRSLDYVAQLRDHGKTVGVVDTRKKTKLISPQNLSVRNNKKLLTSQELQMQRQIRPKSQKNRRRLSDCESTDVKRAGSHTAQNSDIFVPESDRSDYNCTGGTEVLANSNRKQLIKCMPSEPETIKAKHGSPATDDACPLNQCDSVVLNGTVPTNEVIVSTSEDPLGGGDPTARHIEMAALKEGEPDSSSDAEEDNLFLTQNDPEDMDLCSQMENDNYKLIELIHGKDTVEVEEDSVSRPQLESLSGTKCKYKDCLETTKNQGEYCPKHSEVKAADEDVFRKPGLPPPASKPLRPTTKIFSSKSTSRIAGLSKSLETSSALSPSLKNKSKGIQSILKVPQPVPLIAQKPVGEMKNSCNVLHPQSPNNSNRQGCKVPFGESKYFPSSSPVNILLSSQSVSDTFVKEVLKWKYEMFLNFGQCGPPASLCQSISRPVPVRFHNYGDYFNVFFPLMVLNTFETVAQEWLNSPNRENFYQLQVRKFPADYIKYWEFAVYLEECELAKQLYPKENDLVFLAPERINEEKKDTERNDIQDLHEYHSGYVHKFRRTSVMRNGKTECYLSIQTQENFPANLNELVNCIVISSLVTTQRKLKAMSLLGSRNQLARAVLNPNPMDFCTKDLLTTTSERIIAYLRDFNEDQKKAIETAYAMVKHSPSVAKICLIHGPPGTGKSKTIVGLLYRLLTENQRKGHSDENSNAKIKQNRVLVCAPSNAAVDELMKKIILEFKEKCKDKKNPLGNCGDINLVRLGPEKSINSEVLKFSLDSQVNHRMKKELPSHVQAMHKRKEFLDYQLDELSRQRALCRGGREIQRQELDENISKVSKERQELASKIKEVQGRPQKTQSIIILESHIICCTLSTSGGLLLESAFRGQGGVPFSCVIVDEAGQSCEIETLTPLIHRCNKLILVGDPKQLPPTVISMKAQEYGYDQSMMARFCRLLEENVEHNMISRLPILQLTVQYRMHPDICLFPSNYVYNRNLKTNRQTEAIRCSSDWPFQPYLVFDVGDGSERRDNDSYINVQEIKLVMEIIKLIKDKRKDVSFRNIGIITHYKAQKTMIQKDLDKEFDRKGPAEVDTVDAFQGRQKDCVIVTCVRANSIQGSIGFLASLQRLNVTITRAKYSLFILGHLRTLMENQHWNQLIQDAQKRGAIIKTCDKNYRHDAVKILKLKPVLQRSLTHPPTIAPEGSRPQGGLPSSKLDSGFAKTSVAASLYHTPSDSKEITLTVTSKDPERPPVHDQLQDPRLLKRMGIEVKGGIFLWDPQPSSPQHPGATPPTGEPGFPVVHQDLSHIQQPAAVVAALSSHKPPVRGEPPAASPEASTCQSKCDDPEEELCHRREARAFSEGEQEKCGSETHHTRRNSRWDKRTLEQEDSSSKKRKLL

Legend:
[1] = molecular target: BRCA1 (human (endogenous in HeLa, HME and T98G)) (UniProt P38398); assay: co-IP; chromatin fractions of HeLa cells transfected or not with GFP-RNAse H1 24 h before collection; IPs of endogenous BRCA1, TRF2, TRF1 and POT1, immunoblot (Fig. 1e)
[2] = molecular target: GST-tagged BRCA1 segment 1005-1313 aa (UniProt P38398); assay: pull-down; 2 μg of bead-bound GST-BRCA1 fusion proteins or GST beads only incubated with NETN 250 (250 mM NaCl) precleared HeLa whole-cell extracts; immunoblot for XRN2; only the target purified
[3] = molecular target: T1, POT1 (human (endogenous in HeLa)) (UniProt Q9NUX5); assay: co-IP; chromatin fractions of HeLa cells transfected or not with GFP-RNAse H1 24 h before collection; IPs of endogenous BRCA1, TRF2, TRF1 and POT1, immunoblot (Fig. 1e)
T1 sequence: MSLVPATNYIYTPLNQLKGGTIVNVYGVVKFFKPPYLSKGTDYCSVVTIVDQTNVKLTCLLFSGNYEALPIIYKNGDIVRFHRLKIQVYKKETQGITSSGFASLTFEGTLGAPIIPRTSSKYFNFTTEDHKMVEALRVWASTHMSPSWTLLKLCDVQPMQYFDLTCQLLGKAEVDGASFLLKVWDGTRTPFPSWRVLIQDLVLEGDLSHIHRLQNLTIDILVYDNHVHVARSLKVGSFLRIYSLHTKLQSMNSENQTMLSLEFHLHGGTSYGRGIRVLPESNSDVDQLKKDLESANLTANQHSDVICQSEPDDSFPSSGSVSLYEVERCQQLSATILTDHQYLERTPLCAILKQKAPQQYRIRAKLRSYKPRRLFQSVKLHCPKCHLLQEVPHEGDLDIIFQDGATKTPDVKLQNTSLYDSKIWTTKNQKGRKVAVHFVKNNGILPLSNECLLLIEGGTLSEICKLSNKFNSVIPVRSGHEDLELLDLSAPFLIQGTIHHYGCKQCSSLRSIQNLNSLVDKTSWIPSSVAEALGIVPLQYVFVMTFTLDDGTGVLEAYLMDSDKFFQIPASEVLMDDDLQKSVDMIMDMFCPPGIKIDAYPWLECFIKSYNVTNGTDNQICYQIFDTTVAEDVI

[4] = molecular target: TRF1 (human (endogenous in HeLa)) (UniProt P54274); assay: as above
[5] = molecular target: BRCA1 (human (endogenous in HeLa, HME and T98G)), P38398; assay: as above; conditions: remark: other sources report otherwise

Q: Which binding [1] does the source give for “senataxin (SETX) (from UniProt Q7Z333 1-2677)” here?
A: binds

B1: XRN2 (protein, UniProt Q9H0D6 1-950)
chain: MGVPAFFRWLSRKYPSIIVNCVEEKPKECNGVKIPVDASKPNPNDVEFDNLYLDMNGIIHPCTHPEDKPAPKNEDEMMVAIFEYIDRLFSIVRPRRLLYMAIDGVAPRAKMNQQRSRRFRASKEGMEAAVEKQRVREEILAKGGFLPPEEIKERFDSNCITPGTEFMDNLAKCLRYYIADRLNNDPGWKNLTVILSDASAPGEGEHKIMDYIRRQRAQPNHDPNTHHCLCGADADLIMLGLATHEPNFTIIREEFKPNKPKPCGLCNQFGHEVKDCEGLPREKKGKHDELADSLPCAEGEFIFLRLNVLREYLERELTMASLPFTFDVERSIDDWVFMCFFVGNDFLPHLPSLEIRENAIDRLVNIYKNVVHKTGGYLTESGYVNLQRVQMIMLAVGEVEDSIFKKRKDDEDSFRRRQKEKRKRMKRDQPAFTPSGILTPHALGSRNSPGSQVASNPRQAAYEMRMQNNSSPSISPNTSFTSDGSPSPLGGIKRKAEDSDSEPEPEDNVRLWEAGWKQRYYKNKFDVDAADEKFRRKVVQSYVEGLCWVLRYYYQGCASWKWYYPFHYAPFASDFEGIADMPSDFEKGTKPFKPLEQLMGVFPAASGNFLPPSWRKLMSDPDSSIIDFYPEDFAIDLNGKKYAWQGVALLPFVDERRLRAALEEVYPDLTPEETRRNSLGGDVLFVGKHHPLHDFILELYQTGSTEPVEVPPELCHGIQGKFSLDEEAILPDQIVCSPVPMLRDLTQNTVVSINFKDPQFAEDYIFKAVMLPGARKPAAVLKPSDWEKSSNGRQWKPQLGFNRDRRPVHLDQAAFRTLGHVMPRGSGTGIYSNAAPPPVTYQGNLYRPLLRGQAQIPKLMSNMRPQDSWRGPPPLFQQQRFDRGVGAEPLLPWNRMLQTQNAAFQPNQYQMLAGPGGYPPRRDDRGGRQGYPREGRKYPLPPPSGRYNWN
Q: What does the source list for B1?
A: binding [2]: binds; binding [3]: binds; binding [4]: binds

B2: XRN2, Q9H0D6 1-950 (protein)
chain: B1 chain
Q: Which binding [5] does the source give for B2 here?
A: binds
